# From publication PMC4751086
# By UniProt entry, the sequences of proteins in these tests, tags left out. Residues count along the entry.
# UniProt Q8WUM4, residues 1-359: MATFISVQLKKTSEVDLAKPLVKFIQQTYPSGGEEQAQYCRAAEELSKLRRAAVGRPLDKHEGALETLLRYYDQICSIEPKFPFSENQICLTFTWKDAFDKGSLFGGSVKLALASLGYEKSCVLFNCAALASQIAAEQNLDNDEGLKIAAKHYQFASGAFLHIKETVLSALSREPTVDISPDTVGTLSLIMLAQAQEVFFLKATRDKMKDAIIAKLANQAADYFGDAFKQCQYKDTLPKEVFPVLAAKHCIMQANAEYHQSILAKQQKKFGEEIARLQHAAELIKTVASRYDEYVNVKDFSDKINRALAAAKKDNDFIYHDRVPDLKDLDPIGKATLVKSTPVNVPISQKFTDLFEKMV
# Where a chain is given by its changes, count along the chain named. These are yes or no findings as the source states them, for the method shown. For some of these results: In cells and extracts the contact can be indirect. Some binding calls cover weakened binding; strength is not graded here. For some of these results: Where a sequence is shown, tags or fusion partners need not be part of it.
# Columns and labels:
# [1] = target: T1, HD-PTP(1–361;T145K) (human) (UniProt Q9H3S7); assay: condition: 0.5 mM peptide titrated into 50 μM protein; ITC; 0.5 mM peptide titrated into 50 μM protein; iTC200; 2°C as printed; 20 mM Tris-HCl (pH 7.5), 100 mM NaCl; both purified
# T1 sequence: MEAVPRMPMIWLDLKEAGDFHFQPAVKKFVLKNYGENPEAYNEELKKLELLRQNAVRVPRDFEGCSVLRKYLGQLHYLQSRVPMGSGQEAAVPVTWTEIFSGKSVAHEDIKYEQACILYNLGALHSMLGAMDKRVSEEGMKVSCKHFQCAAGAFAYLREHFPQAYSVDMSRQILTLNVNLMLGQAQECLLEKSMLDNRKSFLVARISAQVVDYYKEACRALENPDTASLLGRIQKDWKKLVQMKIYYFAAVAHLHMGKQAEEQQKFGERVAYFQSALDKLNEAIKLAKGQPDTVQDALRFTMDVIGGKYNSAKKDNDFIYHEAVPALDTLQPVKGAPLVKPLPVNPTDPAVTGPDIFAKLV
# [2] = target: T2, HD-PTP(1–361;T145R) (human) (UniProt Q9H3S7); assay: as above
# T2 sequence: T1 sequence with K145R
# Alix(1–359) (human) = Alix(1–359) (human) (UniProt Q8WUM4); assay: as above
# Brox(1–374) (human) = target: T3, Brox(1–374) (human) (UniProt Q5VW32); assay: as above
# T3 sequence: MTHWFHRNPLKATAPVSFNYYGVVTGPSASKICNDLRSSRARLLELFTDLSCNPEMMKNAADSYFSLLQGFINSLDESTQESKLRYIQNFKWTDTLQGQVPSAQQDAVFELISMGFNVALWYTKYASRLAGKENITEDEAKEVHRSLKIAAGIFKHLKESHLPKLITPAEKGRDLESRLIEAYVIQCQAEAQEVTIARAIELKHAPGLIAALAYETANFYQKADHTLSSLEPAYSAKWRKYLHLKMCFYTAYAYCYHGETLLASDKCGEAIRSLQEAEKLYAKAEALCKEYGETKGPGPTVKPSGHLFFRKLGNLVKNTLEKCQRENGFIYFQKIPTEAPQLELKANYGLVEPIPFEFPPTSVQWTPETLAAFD
# [3] = target: T4, Flag–HD-PTP(1–712) (human) (UniProt Q9H3S7); assay: co-IP; HEK293 cells transiently transfected with Flag-tagged HD-PTP(1–712) variants and HA-tagged STAM2 or CHMP4B; lysis in 50 mM Tris-HCl (pH 7.5), 150 mM NaCl, 1% Nonidet P40, 0.5% sodium deoxycholate, 1 mM EDTA; anti-HA agarose or anti-Flag M2 agarose; immunoblotting
# T4 sequence: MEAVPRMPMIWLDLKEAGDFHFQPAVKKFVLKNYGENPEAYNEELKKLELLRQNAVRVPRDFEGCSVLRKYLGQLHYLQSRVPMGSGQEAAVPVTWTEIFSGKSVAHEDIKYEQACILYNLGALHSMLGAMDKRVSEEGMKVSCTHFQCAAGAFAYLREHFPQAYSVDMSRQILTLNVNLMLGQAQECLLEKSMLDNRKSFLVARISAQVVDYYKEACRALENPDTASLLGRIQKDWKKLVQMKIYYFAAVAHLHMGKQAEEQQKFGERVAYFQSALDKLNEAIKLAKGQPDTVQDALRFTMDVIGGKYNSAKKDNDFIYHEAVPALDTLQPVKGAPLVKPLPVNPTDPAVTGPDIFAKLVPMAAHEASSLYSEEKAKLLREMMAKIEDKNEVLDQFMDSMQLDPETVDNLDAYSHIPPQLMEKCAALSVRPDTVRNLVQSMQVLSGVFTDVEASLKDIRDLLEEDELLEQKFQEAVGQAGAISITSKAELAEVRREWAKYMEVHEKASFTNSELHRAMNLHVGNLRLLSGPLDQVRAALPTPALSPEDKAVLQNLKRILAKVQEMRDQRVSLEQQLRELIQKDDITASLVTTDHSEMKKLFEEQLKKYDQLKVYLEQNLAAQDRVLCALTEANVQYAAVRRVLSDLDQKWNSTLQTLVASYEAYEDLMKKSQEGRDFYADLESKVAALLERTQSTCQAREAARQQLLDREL
# [4] = target: T5, HD-PTP(1–712;T145K) (human) (UniProt Q9H3S7); assay: as above
# T5 sequence: T4 sequence with T145K
# HD-PTP(1–361) (human) [5] = target: HD-PTP(1–361) (human) (UniProt Q9H3S7); assay: SEC; Superose 6 10/300 GL gel filtration column; mixture of HD-PTP(1–361) and STAM2 fragment; peak fractions analysed by SDS-PAGE and Coomassie staining; both purified
# HD-PTP(1–361) (human) [6] = target: HD-PTP(1–361) (human) (UniProt Q9H3S7); assay: condition: 0.5 mM peptide titrated into 50 μM HD-PTP(1–361); ITC; 0.5 mM peptide titrated into 50 μM protein; iTC200; 2°C as printed; 20 mM Tris-HCl (pH 7.5), 100 mM NaCl; both purified
# HD-PTP(1–361) (human) [7] = target: HD-PTP(1–361) (human) (UniProt Q9H3S7); assay: condition: 0.5 mM peptide titrated into 50 μM HD-PTP protein; ITC; 0.5 mM peptide titrated into 50 μM protein; iTC200; 2°C as printed; 20 mM Tris-HCl (pH 7.5), 100 mM NaCl; both purified
substance,measurement,setting,value
STAM2(350–370) (from UniProt O75886 350-370) (peptide),binding,[1],no binding
same,binding,[2],no binding
same,binding,Alix(1–359) (human),no binding
same,binding,Brox(1–374) (human),no binding
HA–STAM2(1–370) (from UniProt O75886 1-370) (domain or fragment),binding,[3],binds
same,binding,[4],binds weakly
HA–STAM2(1–370;Y361A) (from UniProt O75886 1-370) (domain or fragment),binding,[3],no binding
STAM2(260–310) (from UniProt O75886 260-310) (domain or fragment),binding,HD-PTP(1–361) (human) [5],no binding
STAM2 peptide of 46-mer (residues 371–416) (from UniProt O75886 371-416),binding,HD-PTP(1–361) (human) [6],no binding
STAM2(350–370) peptide with alanine substitution of Tyr361 (from UniProt O75886 350-370),binding,HD-PTP(1–361) (human) [7],no binding
